Assay results reported in article PMC4450066.
No constants are given. Whether binding was seen depends on the method and setting. For part of these data: Binding seen in cells or lysates may run through a third protein. For part of these data: Binding can be weak; no strength is given. For part of these data: Tags and fused reporters may be left off the sequences shown.

Assays:
[1] = target: T1, GST:SPL11 (rice) (UniProt Q0IMG9); test: pull-down; purified GST fusions of SPL11 or its ARM domain as bait; SPIN6 in vitro translated in rabbit reticulocyte lysate, detected with streptavidin-HRP; only the target purified
T1 sequence: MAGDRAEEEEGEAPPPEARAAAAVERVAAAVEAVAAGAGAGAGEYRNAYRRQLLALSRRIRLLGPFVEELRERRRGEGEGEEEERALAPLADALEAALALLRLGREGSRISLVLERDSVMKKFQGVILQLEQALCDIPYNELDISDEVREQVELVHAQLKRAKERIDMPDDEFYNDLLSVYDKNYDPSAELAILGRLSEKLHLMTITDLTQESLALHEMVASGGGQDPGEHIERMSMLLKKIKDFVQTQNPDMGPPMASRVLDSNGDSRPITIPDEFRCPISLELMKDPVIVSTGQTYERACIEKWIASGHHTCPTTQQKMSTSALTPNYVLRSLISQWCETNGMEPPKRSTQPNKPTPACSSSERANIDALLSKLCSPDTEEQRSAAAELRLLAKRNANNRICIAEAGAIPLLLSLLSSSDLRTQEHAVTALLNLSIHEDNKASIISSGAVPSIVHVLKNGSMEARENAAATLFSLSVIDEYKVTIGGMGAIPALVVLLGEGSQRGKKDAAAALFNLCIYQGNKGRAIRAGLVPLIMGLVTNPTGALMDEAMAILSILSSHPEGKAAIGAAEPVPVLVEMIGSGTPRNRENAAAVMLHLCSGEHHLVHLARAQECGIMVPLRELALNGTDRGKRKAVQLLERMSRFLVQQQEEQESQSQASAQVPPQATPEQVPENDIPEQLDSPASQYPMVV

[2] = target: T2, SPL11, full length, yeast two-hybrid fusion (rice) (UniProt Q0IMG9); test: two-hybrid; ProQuest system (Invitrogen), BD vector pDBLeu and AD vector pPC86, yeast strain Mav203, growth on SD-Leu-Trp-His with 0 mM or 40 mM 3AT
T2 sequence: T1 sequence

[3] = target: T3, NeYFP:SPL11m (rice) (UniProt Q0IMG9); test: split reporter; BiFC with NeYFP and CeYFP fusions co-expressed by agroinfiltration in N. benthamiana leaves, confocal microscopy
T3 sequence: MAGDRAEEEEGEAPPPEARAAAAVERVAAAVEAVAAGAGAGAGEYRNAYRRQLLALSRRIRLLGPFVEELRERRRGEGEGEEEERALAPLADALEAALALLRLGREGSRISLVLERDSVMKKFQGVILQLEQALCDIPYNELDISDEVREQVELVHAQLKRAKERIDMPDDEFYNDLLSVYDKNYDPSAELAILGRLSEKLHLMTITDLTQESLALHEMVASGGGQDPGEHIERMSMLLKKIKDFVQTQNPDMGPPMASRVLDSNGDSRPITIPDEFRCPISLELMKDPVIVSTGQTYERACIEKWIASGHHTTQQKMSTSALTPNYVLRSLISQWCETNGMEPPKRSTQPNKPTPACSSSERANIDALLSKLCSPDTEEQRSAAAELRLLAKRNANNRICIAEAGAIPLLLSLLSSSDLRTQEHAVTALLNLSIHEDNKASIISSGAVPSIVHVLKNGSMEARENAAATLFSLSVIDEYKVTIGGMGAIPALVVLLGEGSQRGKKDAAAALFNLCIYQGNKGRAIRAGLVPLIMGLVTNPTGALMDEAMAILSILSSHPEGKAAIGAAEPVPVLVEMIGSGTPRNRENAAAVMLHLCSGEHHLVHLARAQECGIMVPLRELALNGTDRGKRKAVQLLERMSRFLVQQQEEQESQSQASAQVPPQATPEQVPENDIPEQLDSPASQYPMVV

Substance: His:SPIN6, in vitro translated (rice)
- binding [1]: binds

Substance: SPIN6 homolog RhoGAP protein Os03g24180, yeast two-hybrid fusion (rice)
- binding [2]: no binding

Substance: SPIN6:CeYFP (rice)
- binding [3]: binds
